Results from the M2OR odorant receptor database.
Changes are numbered by the printed parent chain. Only a part is listed here, and it is no random draw. The calls were merged from several studies; some rest on single wells. The list shows a part of the results.

Chains of the proteins cited; added tags and fusions are not shown. A change or cut given only in a name is not applied to a line headed by its entry. Chains listed by the source or under a name are the forms on record and can include a tag or linker.
UniProt Q96R45: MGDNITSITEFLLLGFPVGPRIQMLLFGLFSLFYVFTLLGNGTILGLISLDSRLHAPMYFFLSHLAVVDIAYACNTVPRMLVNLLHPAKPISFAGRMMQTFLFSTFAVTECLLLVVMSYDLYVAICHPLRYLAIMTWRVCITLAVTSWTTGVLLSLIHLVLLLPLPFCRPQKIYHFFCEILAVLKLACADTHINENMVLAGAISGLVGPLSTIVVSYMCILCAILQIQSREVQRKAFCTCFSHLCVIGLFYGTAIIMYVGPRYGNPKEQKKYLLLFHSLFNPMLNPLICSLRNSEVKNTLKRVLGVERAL
OR2A2, as listed by the source: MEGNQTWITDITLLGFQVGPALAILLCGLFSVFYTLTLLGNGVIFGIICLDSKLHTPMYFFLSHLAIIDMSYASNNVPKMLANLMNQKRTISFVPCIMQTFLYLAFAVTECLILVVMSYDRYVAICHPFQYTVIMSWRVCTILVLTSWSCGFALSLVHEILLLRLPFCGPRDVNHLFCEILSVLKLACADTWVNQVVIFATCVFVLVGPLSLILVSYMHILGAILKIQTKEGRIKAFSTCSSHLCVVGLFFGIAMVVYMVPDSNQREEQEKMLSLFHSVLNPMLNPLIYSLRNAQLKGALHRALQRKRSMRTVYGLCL
OR2A7, as listed by the source: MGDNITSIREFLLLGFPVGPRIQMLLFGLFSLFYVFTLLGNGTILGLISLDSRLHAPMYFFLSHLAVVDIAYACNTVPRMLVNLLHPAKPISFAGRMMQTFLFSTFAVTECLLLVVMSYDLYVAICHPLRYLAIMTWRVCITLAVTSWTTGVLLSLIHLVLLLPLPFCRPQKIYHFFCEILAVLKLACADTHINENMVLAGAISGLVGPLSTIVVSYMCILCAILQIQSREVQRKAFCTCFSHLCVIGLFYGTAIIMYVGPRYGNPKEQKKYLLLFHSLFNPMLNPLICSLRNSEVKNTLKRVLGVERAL

Tests used:
Conditions in all cases: stereoisomer not certain
OR2A14 (Homo sapiens) = target: T1, OR2A14 (Homo sapiens) (UniProt Q96R47)
T1 sequence (whole entry): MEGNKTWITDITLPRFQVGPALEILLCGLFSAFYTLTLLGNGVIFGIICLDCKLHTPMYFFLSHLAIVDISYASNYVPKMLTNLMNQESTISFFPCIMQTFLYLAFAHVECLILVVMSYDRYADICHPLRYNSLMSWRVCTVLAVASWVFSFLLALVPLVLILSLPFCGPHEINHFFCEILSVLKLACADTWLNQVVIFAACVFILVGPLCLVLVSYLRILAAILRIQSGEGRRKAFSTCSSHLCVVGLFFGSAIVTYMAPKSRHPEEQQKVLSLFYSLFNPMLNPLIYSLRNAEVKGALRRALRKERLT
Procedure, shortened: (§1)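 Values were gathered from published papers (main text and supplementary material), with extra details requested from the original authors when needed, and checked for typos and inconsistencies. Each receptor–molecule pair is called responsive (active) if the original authors judged the measured signal statistically different from baseline, and non-responsive (inactive) otherwise. Assay methods varied by source, often transient mammalian cell-line luciferase assays. Recorded details include cell line, G-protein, co-transfected protein and tags.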

OR2A1 [1] = system: T2, OR2A1
T2 sequence (whole entry): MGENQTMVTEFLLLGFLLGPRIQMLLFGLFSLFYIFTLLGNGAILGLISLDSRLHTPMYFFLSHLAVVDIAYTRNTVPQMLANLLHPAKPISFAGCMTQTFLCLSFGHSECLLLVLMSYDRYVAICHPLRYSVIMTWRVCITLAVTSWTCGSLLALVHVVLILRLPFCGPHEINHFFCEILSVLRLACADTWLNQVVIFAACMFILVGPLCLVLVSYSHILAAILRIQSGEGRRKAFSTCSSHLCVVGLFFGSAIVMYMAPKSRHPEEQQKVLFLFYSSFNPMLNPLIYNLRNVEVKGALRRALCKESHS
Procedure, shortened: as §1

OR2A1 [2] = system: T3, OR2A1; remark: listed apart in the source
T3 sequence (whole entry): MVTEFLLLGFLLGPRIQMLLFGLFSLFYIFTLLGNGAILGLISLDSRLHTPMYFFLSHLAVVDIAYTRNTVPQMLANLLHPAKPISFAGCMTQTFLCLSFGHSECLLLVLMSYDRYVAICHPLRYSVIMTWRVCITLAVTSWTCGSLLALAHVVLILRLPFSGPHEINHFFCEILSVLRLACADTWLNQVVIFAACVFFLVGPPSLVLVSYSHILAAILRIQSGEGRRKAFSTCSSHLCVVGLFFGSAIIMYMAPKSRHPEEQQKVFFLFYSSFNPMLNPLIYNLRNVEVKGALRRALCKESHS
Procedure, shortened: as §1

OR2A2 (Homo sapiens) = target: T4, OR2A2 (Homo sapiens) (UniProt Q6IF42)
T4 sequence (whole entry): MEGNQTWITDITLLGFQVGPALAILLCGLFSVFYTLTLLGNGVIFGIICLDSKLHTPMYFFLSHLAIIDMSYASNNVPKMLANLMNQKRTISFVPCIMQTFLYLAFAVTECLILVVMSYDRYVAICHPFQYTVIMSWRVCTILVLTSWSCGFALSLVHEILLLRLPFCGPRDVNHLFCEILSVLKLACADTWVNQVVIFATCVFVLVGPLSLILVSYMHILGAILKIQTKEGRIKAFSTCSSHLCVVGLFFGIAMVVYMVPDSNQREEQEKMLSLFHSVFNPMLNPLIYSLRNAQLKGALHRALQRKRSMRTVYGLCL
Procedure, shortened: as §1

OR2A25 (Homo sapiens) = target: T5, OR2A25 (Homo sapiens) (UniProt A4D2G3)
T5 sequence (whole entry): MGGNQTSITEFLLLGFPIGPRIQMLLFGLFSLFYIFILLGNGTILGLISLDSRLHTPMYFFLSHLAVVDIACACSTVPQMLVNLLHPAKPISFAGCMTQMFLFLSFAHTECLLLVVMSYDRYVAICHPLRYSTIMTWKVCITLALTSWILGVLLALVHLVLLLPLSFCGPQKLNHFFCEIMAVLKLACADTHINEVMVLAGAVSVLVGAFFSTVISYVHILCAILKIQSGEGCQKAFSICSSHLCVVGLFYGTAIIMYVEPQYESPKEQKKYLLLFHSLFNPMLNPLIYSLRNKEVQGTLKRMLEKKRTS
Procedure, shortened: as §1

OR2A2 = system: T6, OR2A2
T6 sequence (whole entry): T4 sequence (whole entry) with F280L
Procedure, shortened: as §1

OR2A4 (Homo sapiens) = target: T7, OR2A4 (Homo sapiens) (UniProt O95047)
T7 sequence (whole entry): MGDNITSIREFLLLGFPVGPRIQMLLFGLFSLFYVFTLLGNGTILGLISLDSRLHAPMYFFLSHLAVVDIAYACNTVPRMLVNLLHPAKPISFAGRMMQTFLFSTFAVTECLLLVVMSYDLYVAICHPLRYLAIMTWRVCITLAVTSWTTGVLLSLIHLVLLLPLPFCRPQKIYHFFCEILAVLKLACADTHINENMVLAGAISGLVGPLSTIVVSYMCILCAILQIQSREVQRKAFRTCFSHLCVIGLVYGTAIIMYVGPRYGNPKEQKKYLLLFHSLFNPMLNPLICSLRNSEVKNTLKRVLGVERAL
Procedure, shortened: as §1

OR2A5 (Homo sapiens) = target: T8, OR2A5 (Homo sapiens) (UniProt Q96R48)
T8 sequence (whole entry): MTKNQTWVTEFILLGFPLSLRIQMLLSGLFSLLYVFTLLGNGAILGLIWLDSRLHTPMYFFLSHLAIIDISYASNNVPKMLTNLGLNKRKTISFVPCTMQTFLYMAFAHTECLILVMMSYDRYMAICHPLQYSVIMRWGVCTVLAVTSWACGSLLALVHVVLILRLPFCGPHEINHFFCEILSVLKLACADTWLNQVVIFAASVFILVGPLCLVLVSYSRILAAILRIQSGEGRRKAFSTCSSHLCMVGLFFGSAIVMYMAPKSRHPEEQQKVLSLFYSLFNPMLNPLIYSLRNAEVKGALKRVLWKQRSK
Procedure, shortened: as §1

OR2A7 (Homo sapiens) = target: T9, OR2A7 (Homo sapiens) (UniProt Q96R45)
T9 sequence (whole entry): T7 sequence (whole entry) with R9T, R238C, V250F
Procedure, shortened: as §1

OR2A7 = system: T10, OR2A7
T10 sequence (whole entry): T7 sequence (whole entry) with R238C, V250F
Procedure, shortened: as §1

Measured: odorant receptor agonist call

COC(=O)c1ccccc1O
inactive: all assays above

O=C1CCCCCCCCCCCCCCO1
inactive: all assays above

CC12C=CCC1C1CCC3CC(=O)CCC3(C)C1CC2 (centres undefined)
inactive: all assays above

CCCCCCCCCC=O
inactive: all assays above

O=C1CCCCCCCCCCCC(=O)OCCO1
active: OR2A1 [2] | OR2A4 (Homo sapiens)
inactive: all other assays above

CCCCCCCC=CC=O
active: OR2A2 (Homo sapiens) | OR2A4 (Homo sapiens)
inactive: all other assays above

C=CCc1ccc(OC(C)=O)c(OC)c1
active: OR2A1 [2]
inactive: all other assays above

CC(=O)C(C)=O
inactive: all assays above

O=CCc1ccccc1
active: OR2A1 [2]
inactive: all other assays above

c1cnccn1
inactive: all assays above

CC(=O)OC1CC2CCC1(C)C2(C)C (centres undefined)
active: OR2A14 (Homo sapiens)
inactive: all other assays above

CC12CCC(C1)C(C)(C)C2=O (centres undefined)
inactive: all assays above

c1ccc(Oc2ccccc2)cc1
inactive: all assays above

CC(C)=CCCC(C)=CC=O
inactive: all assays above

C=CCc1ccc(OC)c(OC)c1
inactive: all assays above

CCCCCCCCOC(C)=O
inactive: all assays above

C=CCSCC=C
inactive: all assays above

CC=Cc1ccc(O)c(OC)c1
active: OR2A1 [2] | OR2A5 (Homo sapiens)
inactive: all other assays above

CC(C)CC(=O)O
inactive: all assays above

CCCCO
inactive: all assays above

CC(C)CCC(=O)O
inactive: all assays above

CC1COCc2cc3c(cc21)C(C)(C)C(C)C3(C)C (centres undefined)
inactive: OR2A14 (Homo sapiens) | OR2A1 [1]
active: all other assays above

CCCC(=O)O
inactive: all assays above

CC(C)C=O
active: OR2A14 (Homo sapiens)
inactive: all other assays above

CCC=CCCO
inactive: all assays above

CC12CCC(CC1)C(C)(C)O2
inactive: all assays above

COc1ccccc1O
inactive: all assays above

CC(=O)c1ccccc1
active: OR2A1 [1]
not listed: OR2A1 [2] | OR2A2 | OR2A7 (Homo sapiens)
inactive: all other assays above

O=C1CCCCC1
not listed: OR2A1 [2] | OR2A2 | OR2A7 (Homo sapiens)
inactive: all other assays above

C=C(C)C1CCC2=CC(=O)CC(C)C2(C)C1 (centres undefined)
inactive: OR2A1 [2]

CC(C)(O)CCCC1=CCC(C=O)CC1 (centres undefined)
inactive: OR2A1 [2] | OR2A7 (Homo sapiens)

CCCCCCCCC=O
inactive: OR2A7 (Homo sapiens)

COc1cc(C)ccc1O
inactive: all assays above

C=CC(C)(O)CCC=C(C)C (centres undefined)
inactive: all assays above

COc1cc(C=O)ccc1O
inactive: all assays above

CC(C)(C)c1ccc(CCC=O)cc1
inactive: all assays above

CCCCCC(C)=O
not listed: OR2A1 [2] | OR2A2 | OR2A7 (Homo sapiens)
inactive: all other assays above

CCCCCCCOC(C)=O
inactive: all assays above

CCCCCCCC=O
inactive: all assays above

CCCCCC(=O)O
inactive: all assays above

CC1CCC(C(C)C)C(O)C1 (centres undefined)
active: OR2A2 (Homo sapiens) | OR2A2 | OR2A7 (Homo sapiens)
inactive: all other assays above

CC1=CCC(C(C)(C)O)CC1 (centres undefined)
inactive: all assays above

CCCCCCCCCCC=O
inactive: all assays above

CCCCCCOC(=O)CCC
inactive: all assays above

CCCCCOC(C)=O
active: OR2A14 (Homo sapiens) | OR2A1 [1]
not listed: OR2A2 | OR2A7 (Homo sapiens)
inactive: all other assays above

C=C(C)C1CC=C(C)C(=O)C1 (centres undefined)
inactive: OR2A7 (Homo sapiens)

C=CCc1ccc(O)c(OC)c1
inactive: OR2A7 (Homo sapiens)

CC(=O)OCC=C(C)CCC=C(C)C
active: OR2A14 (Homo sapiens) | OR2A1 [2] | OR2A25 (Homo sapiens)
inactive: all other assays above

CC(=O)OC(C)(C)C1CC=C(C)CC1 (centres undefined)
inactive: all assays above

CC1=NC(C)SC1C (centres undefined)
not listed: OR2A1 [2] | OR2A2 | OR2A7 (Homo sapiens)
inactive: all other assays above

COC(=O)c1ccccc1
active: OR2A1 [1]
not listed: OR2A1 [2] | OR2A2 | OR2A7 (Homo sapiens)
inactive: all other assays above

CCC1(O)C2(C)CCC(C2)C1(C)C (centres undefined)
inactive: all assays above

CC12C=CCC1C1CCC3=CC(=O)CCC3(C)C1CC2 (centres undefined)
active: OR2A14 (Homo sapiens)
inactive: all other assays above

CC(C)C(=O)O
inactive: all assays above
